From PubChem BioAssay AID493014 (National Center for Advancing Translational Sciences (NCATS), 2011)
Hit rate of the full screen: of about 340,000 compounds, about 170 (0.05%) were called active. The inconclusive results got no clear call from the source; some entries with a clear call stand among them for comparison. Calls follow the shape of the dose curve; as a rule, active = well fitted inhibition curve with a large enough effect in the signal ratio, with a control signal flat (not every such curve was filed as active); inconclusive = small, poorly fitted or top-dose-only effect, or effect the other way, or a change in a side signal; inactive = flat fitted curve, though single readings scatter; the % refers to the signal ratio. Where the call is inconclusive, the potency comes from a doubtful curve fit.

experiment: qHTS Assay to Find Inhibitors of Chronic Active B-Cell Receptor Signaling; details: ABC-DLBCL IkBa-CBG/CBR reporter, luminescence ratio (green luciferase fused to IkBa over red control in TMD8 lymphoma cells), 4 h; activity change, negative = inhibition: at 46.1 µM (top of the series);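 as to activity change, negative = inhibition: plate controls were basal doxycycline-induced cells for no effect and cells given 10 µM MG132 for full effect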
Outline: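 Doxycycline induced both beetle luciferases in TMD8 lymphoma cells; IKK-driven degradation limits the IkappaBalpha-fused green signal, while red luminescence normalises for cell number and nonspecific effects. Compounds tested up to 46 uM, 4 hrs.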
Potency is read from the fitted curve at half-maximal effect.

| Structure (SMILES) | activity change, negative = inhibition | Potency |
| --- | --- | --- |
| CSc1ncccc1C(=O)OCc1ccccc1 | inconclusive: -6.88% | – |
| Cc1ccc(NC(=O)NC(=O)c2cnccc2C(F)(F)F)c(C)c1 | inconclusive: 8.48% | – |
| Fc1ccc(Nc2nc(SCc3ccc(Cl)cc3)nc3ccccc23)cc1 | – | inconclusive: 11.2 µM [rising, partial curve, poor fit] |
| O=C(Nc1ccc(Oc2ccc(C(F)(F)F)cn2)c(Cl)c1)C1CC1 | inconclusive: -0.0294% | – |
| Cc1ccc(NC(=O)NC2CCCCC2)c(C)c1 | inactive: -2.59% | – |
| CCN(CC)c1ccc(S(=O)(=O)N2CCOCC2)cc1NC(=O)CSc1nncn1C | inconclusive: -2.5% | – |
| O=C(CCc1ccccc1)NNC(=O)Cc1ccc(Cl)cc1 | inactive: -1.51% | – |
| COc1ccc(S(=O)(=O)CCC(=O)NCCc2cccc(C)c2)cc1 | inconclusive: 7.78% | – |
| COc1ccccc1Nc1nc(-c2c(C)nc3ncccn23)cs1 | – | inconclusive: 10 µM [falling, partial curve] |
| CCSC1=C(C#N)C2(CCCC2)C(C#N)=C(N)N1 | inconclusive: -8.11% | – |
| O=C(C1CCCN1C(=O)c1cccs1)N1CCc2ccccc21 (stereo not given) | inconclusive: -1.65% | – |
| CCn1c(SCC(=O)NCCOC)nc2sc(C)c(C)c2c1=O | – | inconclusive: 16.4 µM [falling, single point] |
| O=C1NC2(CCCCO2)CO1 (stereo not given) | inconclusive: -9.75% | – |
| Cc1cc(Br)ccc1NC(=O)CN1C(=O)C2C3CC(c4ccccc4)C(C3)C2C1=O (stereo not given) | inconclusive: 5.66% | – |
| O=c1[nH]c2ccccc2n2c(-c3ccccc3)nnc12 | inconclusive: 20.7% | – |
| CCCN1C(C)C(C(=O)OCC)=CN(Cc2cccc(I)c2)S1(=O)=O (stereo not given) | inactive: 13.5% | – |
| CC(=O)c1cc(F)c(N2CCN(C(=O)C(C)(C)C)CC2)cc1C | inactive: -2.77% | – |
| CCN(CC)C(=O)/C=C/c1ccc(OC)c(S(=O)(=O)N2CCCCC2)c1 | inconclusive: 0.967% | – |
| O=C(OCn1nnc2ccccc2c1=O)C1CCCCC1 | inactive: -3.45% | – |
| Cc1cc2ncn(CCC(=O)NC3CCCC3)c2cc1C | inconclusive: 0.164% | – |
| COC(=O)N/N=C/c1ccc(-c2cc(Cl)ccc2Cl)o1 | inconclusive: -16.5% | – |
| O=C(Nc1nc2ccccc2s1)Nc1ccc(F)cc1F | – | inconclusive: 25.1 µM [falling, partial curve] |
| CN1C(=O)/C(=C\c2ccc(OC(=O)c3ccco3)cc2)SC1=S | inactive: -3.33% | – |
| O=C1N=C(N2CCC(Cc3ccccc3)CC2)S/C1=C/c1cn[nH]c1-c1ccccc1 | – | inconclusive: 22.4 µM [falling, partial curve, poor fit] |
| Cc1nnc2c(NC3CCCC3)nc3ccccc3n12 | inconclusive: -21.5% | – |

Single records, as listed above.
`CCCN1C(C)C(C(=O)OCC)=CN(Cc2cccc(I)c2)S1(=O)=O` (stereo not given) is listed with activity change, negative = inhibition: inactive: 13.5%
`COc1ccc(S(=O)(=O)CCC(=O)NCCc2cccc(C)c2)cc1` is listed with activity change, negative = inhibition: inconclusive: 7.78%
